PubChem BioAssay AID743121 | NCATS | 2013
Aim: 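Knock-downs that sensitise breast cancer cells to camptothecin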 (primary screen). System: MDA-MB-231 cells, a human breast cancer line. Reagents: single siRNA against human genes, 20 nM siRNA (0.8 pmol per well). Time to read-out: 120 h (drug added 48 h after transfection, read 72 h later). Conditions: camptothecin 20 nM (about EC30) for 72 h; vehicle 0.1% DMSO in parallel plates. Measurement: 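Cell viability by ATP luminescence (CellTiter-Glo) as % of non-targeting siRNA wells, and the log2 ratio of viability without drug over viability with camptothecin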. Reading the numbers: log2 vehicle/camptothecin viability: higher = stronger sensitisation to camptothecin; viability with camptothecin and viability without drug: higher = more viable cells. Call rule: 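Active genes have an RSA gene-level p-value below 0.001, computed from the ratios of their separate siRNAs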.
In all, the deposit lists about 26,000 reagents; shown is a random part of them. In the full data, 167 (0.63%) were called active. 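Calls are per gene from RSA p-values that are not deposited; an individual active-marked siRNA can sensitise only weakly.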 A number with no mark means an inactive call. The numbers tell different reagents against one gene apart.

| Gene | reagent | log2 vehicle/camptothecin viability | viability with camptothecin (% of control) | viability without drug (% of control) |
| --- | --- | --- | --- | --- |
| SLC25A11 | 1 | -0.333 | 77 | 61.1 |
| SLC25A11 | 2 | -0.228 | 79.4 | 67.8 |
| SLC25A11 | 3 | -0.5 | 20 | 14.2 |
| SLC25A11 | 4 | -0.263 | 59.3 | 49.4 |
| NIM1K (NIM1 serine/threonine protein kinase) | 1 | -0.307 | 85.1 | 68.8 |
| NIM1K (NIM1 serine/threonine protein kinase) | 2 | -0.273 | 49.8 | 41.2 |
| NIM1K (NIM1 serine/threonine protein kinase) | 3 | -0.0791 | 94.9 | 89.8 |
| FOSB (FosB proto-oncogene, AP-1 transcription factor subunit) | 1 | -0.355 | 91.8 | 71.8 |
| FOSB (FosB proto-oncogene, AP-1 transcription factor subunit) | 2 | -0.36 | 57.8 | 45 |
| FOSB (FosB proto-oncogene, AP-1 transcription factor subunit) | 3 | -0.238 | 50 | 42.4 |
| FOSB (FosB proto-oncogene, AP-1 transcription factor subunit) | 4 | -0.216 | 46.3 | 39.8 |
| VPS39 (VPS39 subunit of HOPS complex) | 1 | -0.279 | 88.5 | 73 |
| VPS39 (VPS39 subunit of HOPS complex) | 2 | 0.637 | 37.2 | 57.8 |
| VPS39 (VPS39 subunit of HOPS complex) | 3 | -0.347 | 68.1 | 53.6 |
| NMUR2 (neuromedin U receptor 2) | 1 | -0.33 | 39.9 | 31.8 |
| NMUR2 (neuromedin U receptor 2) | 2 | 0.147 | 39.1 | 43.3 |
| NMUR2 (neuromedin U receptor 2) | 3 | -0.416 | 53.9 | 40.4 |
| NMUR2 (neuromedin U receptor 2) | 4 | -0.734 | 57.8 | 34.8 |
| FOXO3 (forkhead box O3) | 1 | 0.0132 | 85.7 | 86.5 |
| FOXO3 (forkhead box O3) | 2 | -0.262 | 70.9 | 59.1 |
| FOXO3 (forkhead box O3) | 3 | 0.26 | 70.6 | 84.6 |
| FOXO3 (forkhead box O3) | 4 | 0.496 | 36.3 | 51.2 |
| CAMK1G (calcium/calmodulin dependent protein kinase IG) | 1 | -0.315 | 91.3 | 73.4 |
| CAMK1G (calcium/calmodulin dependent protein kinase IG) | 2 | 1.5 | 6.79 | 19.2 |
| CAMK1G (calcium/calmodulin dependent protein kinase IG) | 3 | -0.355 | 90.9 | 71.1 |
| CAMK1G (calcium/calmodulin dependent protein kinase IG) | 4 | -0.605 | 72.5 | 47.7 |
| OR8U1 (olfactory receptor family 8 subfamily U member 1) | 1 | -0.225 | 70.4 | 60.2 |
| OR8U1 (olfactory receptor family 8 subfamily U member 1) | 2 | -0.653 | 97.7 | 62.1 |
| OR8U1 (olfactory receptor family 8 subfamily U member 1) | 3 | 0.454 | 50 | 68.4 |
| OR8U1 (olfactory receptor family 8 subfamily U member 1) | 4 | 0.0951 | 45.1 | 48.2 |
| LPAR2 (lysophosphatidic acid receptor 2) | 1 | -0.386 | 69.2 | 52.9 |
| LPAR2 (lysophosphatidic acid receptor 2) | 2 | -0.00977 | 52.2 | 51.9 |
| LPAR2 (lysophosphatidic acid receptor 2) | 3 | -0.088 | 111 | 105 |
| LPAR2 (lysophosphatidic acid receptor 2) | 4 | -0.323 | 61.1 | 48.8 |
| PCDHA9 (protocadherin alpha 9) | 1 | 0.706 | 27.2 | 44.3 |
| PCDHA9 (protocadherin alpha 9) | 2 | -0.0451 | 56.1 | 54.4 |
| PCDHA9 (protocadherin alpha 9) | 3 | -0.251 | 127 | 107 |
| PCDHA9 (protocadherin alpha 9) | 4 | -0.648 | 87.7 | 56 |
| MFAP4 (microfibril associated protein 4) | 1 | -0.173 | 63.8 | 56.6 |
| MFAP4 (microfibril associated protein 4) | 2 | -0.102 | 40.3 | 37.6 |
| MFAP4 (microfibril associated protein 4) | 3 | -0.0624 | 85.8 | 82.2 |
| MFAP4 (microfibril associated protein 4) | 4 | -0.384 | 46.1 | 35.4 |
| TCF15 (transcription factor 15) | 1 | 0.0844 | 42.5 | 45.1 |
| TCF15 (transcription factor 15) | 2 | 0.165 | 36.9 | 41.4 |
| TCF15 (transcription factor 15) | 3 | -0.0511 | 106 | 102 |
| TCF15 (transcription factor 15) | 4 | -0.261 | 19.3 | 16.1 |
| ABCG4 (ATP binding cassette subfamily G member 4) | 1 | -0.171 | 60.1 | 53.4 |
| ABCG4 (ATP binding cassette subfamily G member 4) | 2 | -0.0957 | 63.3 | 59.2 |
| ABCG4 (ATP binding cassette subfamily G member 4) | 3 | 0.0432 | 105 | 108 |
| ABCG4 (ATP binding cassette subfamily G member 4) | 4 | -0.254 | 69 | 57.8 |
| KTI12 (KTI12 chromatin associated homolog) | 1 | -0.0348 | 96.7 | 94.4 |
| KTI12 (KTI12 chromatin associated homolog) | 2 | -0.718 | 80.9 | 49.2 |
| KTI12 (KTI12 chromatin associated homolog) | 3 | 0.0231 | 91.1 | 92.5 |
| CYBB (cytochrome b-245 beta chain) | 1 | -0.183 | 69 | 60.8 |
| CYBB (cytochrome b-245 beta chain) | 2 | 0.471 | 66.7 | 92.5 |
| CYBB (cytochrome b-245 beta chain) | 3 | -0.326 | 114 | 90.8 |
| CYBB (cytochrome b-245 beta chain) | 4 | -0.408 | 59.1 | 44.6 |
| SLCO1B3 | 1 | -1.04 | 52.9 | 25.8 |
| SLCO1B3 | 2 | -0.2 | 85.1 | 74.1 |
| SLCO1B3 | 3 | 0.0123 | 65.8 | 66.4 |
| PSEN1 (presenilin 1) | 1 | 0.1 | 101 | 108 |
| PSEN1 (presenilin 1) | 2 | -0.305 | 61.1 | 49.5 |
| PSEN1 (presenilin 1) | 3 | 0.0291 | 105 | 107 |
| PSEN1 (presenilin 1) | 4 | -0.318 | 73.7 | 59.2 |
| RSPH10B (radial spoke head 10 homolog B) | 1 | -0.359 | 91.5 | 71.3 |
| RSPH10B (radial spoke head 10 homolog B) | 2 | 0.363 | 71.1 | 91.4 |
| RSPH10B (radial spoke head 10 homolog B) | 3 | 0.0125 | 89.3 | 90.1 |
| RSPH10B (radial spoke head 10 homolog B) | 4 | -0.146 | 85.5 | 77.3 |
| MRAS (muscle RAS oncogene homolog) | 1 | -0.0265 | 79.8 | 78.3 |
| MRAS (muscle RAS oncogene homolog) | 2 | -0.106 | 82.4 | 76.5 |
| MRAS (muscle RAS oncogene homolog) | 3 | 0.0576 | 56.9 | 59.2 |
| MRAS (muscle RAS oncogene homolog) | 4 | -0.774 | 42.2 | 24.6 |
| PLG (plasminogen) | 1 | -0.401 | 17.9 | 13.6 |
| PLG (plasminogen) | 2 | -0.328 | 57.3 | 45.7 |
| PLG (plasminogen) | 3 | -0.112 | 77.8 | 72 |
| UBAP2L (ubiquitin associated protein 2 like) | 1 | 0.167 | 62.7 | 70.4 |
| UBAP2L (ubiquitin associated protein 2 like) | 2 | 0.125 | 59.3 | 64.6 |
| UBAP2L (ubiquitin associated protein 2 like) | 3 | -0.0247 | 88.7 | 87.2 |
| GPR85 (G protein-coupled receptor 85) | 1 | -0.294 | 60.8 | 49.6 |
| GPR85 (G protein-coupled receptor 85) | 2 | -0.187 | 113 | 99.6 |
| GPR85 (G protein-coupled receptor 85) | 3 | -0.179 | 42.9 | 37.9 |
| GPR85 (G protein-coupled receptor 85) | 4 | 0.597 | 72.7 | 110 |
| TP53I3 (tumor protein p53 inducible protein 3) | 1 | 0.275 | 61.3 | 74.2 |
| TP53I3 (tumor protein p53 inducible protein 3) | 2 | 0.0187 | 60.3 | 61.1 |
| TP53I3 (tumor protein p53 inducible protein 3) | 3 | 0.28 | 54.8 | 66.5 |
| TP53I3 (tumor protein p53 inducible protein 3) | 4 | 0.151 | 65.1 | 72.3 |
| GPR27 (G protein-coupled receptor 27) | 1 | -0.191 | 85.8 | 75.2 |
| GPR27 (G protein-coupled receptor 27) | 2 | -0.481 | 55.8 | 39.9 |
| GPR27 (G protein-coupled receptor 27) | 3 | -0.129 | 17.2 | 15.7 |
| GPR27 (G protein-coupled receptor 27) | 4 | -0.173 | 94 | 83.4 |
